Drawing on PMC12124498, this text covers binding for twelve molecules.

Sequences of proteins named here, by UniProt entry; tags and fusion partners are left off.
UniProt P26368: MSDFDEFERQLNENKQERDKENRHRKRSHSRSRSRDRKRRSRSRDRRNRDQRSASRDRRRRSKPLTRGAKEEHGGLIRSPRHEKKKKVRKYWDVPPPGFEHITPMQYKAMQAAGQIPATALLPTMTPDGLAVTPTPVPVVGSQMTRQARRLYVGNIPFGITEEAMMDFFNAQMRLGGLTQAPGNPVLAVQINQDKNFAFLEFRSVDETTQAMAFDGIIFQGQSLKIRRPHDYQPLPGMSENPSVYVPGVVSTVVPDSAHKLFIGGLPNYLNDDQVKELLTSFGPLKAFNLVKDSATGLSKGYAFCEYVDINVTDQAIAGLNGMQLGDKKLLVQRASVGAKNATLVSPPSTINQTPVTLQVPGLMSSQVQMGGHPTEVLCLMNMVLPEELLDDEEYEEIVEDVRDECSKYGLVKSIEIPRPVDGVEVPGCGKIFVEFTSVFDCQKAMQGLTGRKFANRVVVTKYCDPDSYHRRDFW

The target of this test is U2AF2-TurboID-HA (human) (UniProt P26368). Briefly: proximity labelling; U2AF2-TurboID-HA induced with doxycycline for 4 h in pluripotent hiPSC; biotinylated proteins purified on streptavidin magnetic beads, LC-MS with label-free quantification; hits: Log2ΔLFQ >= 2 and p <= 0.05, pluripotent against mesoderm U2AF2-TurboID samples.

Results are given in words; binding and its absence hold for the method and conditions named. Binding seen in cells or lysates may run through a third protein. A yes stands for co-enrichment or nearness to the bait. Other partners may have been found.

B1: NSDHL (protein, UniProt Q15738 1-373)
chain: MEPAVSEPMRDQVARTHLTEDTPKVNADIEKVNQNQAKRCTVIGGSGFLGQHMVEQLLARGYAVNVFDIQQGFDNPQVRFFLGDLCSRQDLYPALKGVNTVFHCASPPPSSNNKELFYRVNYIGTKNVIETCKEAGVQKLILTSSASVIFEGVDIKNGTEDLPYAMKPIDYYTETKILQERAVLGANDPEKNFLTTAIRPHGIFGPRDPQLVPILIEAARNGKMKFVIGNGKNLVDFTFVENVVHGHILAAEQLSRDSTLGGKAFHITNDEPIPFWTFLSRILTGLNYEAPKYHIPYWVAYYLALLLSLLVMVISPVIQLQPTFTPMRVALAGTFHYYSCERAKKAMGYQPLVTMDDAMERTVQSFRHLRRVK
On to B1, for which the binding entry is on record as “binds”.

B2: FDFT1 (protein, UniProt P37268 1-417)
chain: MEFVKCLGHPEEFYNLVRFRIGGKRKVMPKMDQDSLSSSLKTCYKYLNQTSRSFAAVIQALDGEMRNAVCIFYLVLRALDTLEDDMTISVEKKVPLLHNFHSFLYQPDWRFMESKEKDRQVLEDFPTISLEFRNLAEKYQTVIADICRRMGIGMAEFLDKHVTSEQEWDKYCHYVAGLVGIGLSRLFSASEFEDPLVGEDTERANSMGLFLQKTNIIRDYLEDQQGGREFWPQEVWSRYVKKLGDFAKPENIDLAVQCLNELITNALHHIPDVITYLSRLRNQSVFNFCAIPQVMAIATLAACYNNQQVFKGAVKIRKGQAVTLMMDATNMPAVKAIIYQYMEEIYHRIPDSDPSSSKTRQIISTIRTQNLPNCQLISRSHYSPIYLSFVMLLAALSWQYLTTLSQVTEDYVQTGEH
Turning to B2, the binding entry is on record as “binds”.

B3: HNRNPDL (protein, UniProt O14979 1-420)
chain: MEVPPRLSHVPPPLFPSAPATLASRSLSHWRPRPPRQLAPLLPSLAPSSARQGARRAQRHVTAQQPSRLAGGAAIKGGRRRRPDLFRRHFKSSSIQRSAAAAAATRTARQHPPADSSVTMEDMNEYSNIEEFAEGSKINASKNQQDDGKMFIGGLSWDTSKKDLTEYLSRFGEVVDCTIKTDPVTGRSRGFGFVLFKDAASVDKVLELKEHKLDGKLIDPKRAKALKGKEPPKKVFVGGLSPDTSEEQIKEYFGAFGEIENIELPMDTKTNERRGFCFITYTDEEPVKKLLESRYHQIGSGKCEIKVAQPKEVYRQQQQQQKGGRGAAAGGRGGTRGRGRGQGQNWNQGFNNYYDQGYGNYNSAYGGDQNYSGYGGYDYTGYNYGNYGYGQGYADYSGQQSTYGKASRGGGNHQNNYQPY
With B3, the binding result is “binds”.

B4: OSTC (protein, UniProt Q9NRP0 1-149)
chain: METLYRVPFLVLECPNLKLKKPPWLHMPSAMTVYALVVVSYFLITGGIIYDVIVEPPSVGSMTDEHGHQRPVAFLAYRVNGQYIMEGLASSFLFTMGGLGFIILDRSNAPNIPKLNRFLLLFIGFVCVLLSFFMARVFMRMKLPGYLMG
Consider B4, for which the binding entry is reported as “binds”.

B5: STT3A (protein, UniProt P46977 1-705)
chain: MTKFGFLRLSYEKQDTLLKLLILSMAAVLSFSTRLFAVLRFESVIHEFDPYFNYRTTRFLAEEGFYKFHNWFDDRAWYPLGRIIGGTIYPGLMITSAAIYHVLHFFHITIDIRNVCVFLAPLFSSFTTIVTYHLTKELKDAGAGLLAAAMIAVVPGYISRSVAGSYDNEGIAIFCMLLTYYMWIKAVKTGSICWAAKCALAYFYMVSSWGGYVFLINLIPLHVLVLMLTGRFSHRIYVAYCTVYCLGTILSMQISFVGFQPVLSSEHMAAFGVFGLCQIHAFVDYLRSKLNPQQFEVLFRSVISLVGFVLLTVGALLMLTGKISPWTGRFYSLLDPSYAKNNIPIIASVSEHQPTTWSSYYFDLQLLVFMFPVGLYYCFSNLSDARIFIIMYGVTSMYFSAVMVRLMLVLAPVMCILSGIGVSQVLSTYMKNLDISRPDKKSKKQQDSTYPIKNEVASGMILVMAFFLITYTFHSTWVTSEAYSSPSIVLSARGGDGSRIIFDDFREAYYWLRHNTPEDAKVMSWWDYGYQITAMANRTILVDNNTWNNTHISRVGQAMASTEEKAYEIMRELDVSYVLVIFGGLTGYSSDDINKFLWMVRIGGSTDTGKHIKENDYYTPTGEFRVDREGSPVLLNCLMYKMCYYRFGQVYTEAKRPPGFDRVRNAEIGNKDFELDVLEEAYTTEHWLVRIYKVKDLDNRGLSRT
As to B5, the binding entry is reported as “binds”.

B6: NUDCD1 (protein, UniProt Q96RS6 1-583)
chain: MEVAANCSLRVKRPLLDPRFEGYKLSLEPLPCYQLELDAAVAEVKLRDDQYTLEHMHAFGMYNYLHCDSWYQDSVYYIDTLGRIMNLTVMLDTALGKPREVFRLPTDLTACDNRLCASIHFSSSTWVTLSDGTGRLYVIGTGERGNSASEKWEIMFNEELGDPFIIIHSISLLNAEEHSIATLLLRIEKEELDMKGSGFYVSLEWVTISKKNQDNKKYEIIKRDILRGKSVPHYAAIEPDGNGLMIVSYKSLTFVQAGQDLEENMDEDISEKIKEPLYYWQQTEDDLTVTIRLPEDSTKEDIQIQFLPDHINIVLKDHQFLEGKLYSSIDHESSTWIIKESNSLEISLIKKNEGLTWPELVIGDKQGELIRDSAQCAAIAERLMHLTSEELNPNPDKEKPPCNAQELEECDIFFEESSSLCRFDGNTLKTTHVVNLGSNQYLFSVIVDPKEMPCFCLRHDVDALLWQPHSSKQDDMWEHIATFNALGYVQASKRDKKFFACAPNYSYAALCECLRRVFIYRQPAPMSTVLYNRKEGRQVGQVAKQQVASLETNDPILGFQATNERLFVLTTKNLFLIKVNTEN
B6: the binding result is “binds”.

B7: NACC1 (protein, UniProt Q96RE7 1-527)
chain: MAQTLQMEIPNFGNSILECLNEQRLQGLYCDVSVVVKGHAFKAHRAVLAASSSYFRDLFNNSRSAVVELPAAVQPQSFQQILSFCYTGRLSMNVGDQFLLMYTAGFLQIQEIMEKGTEFFLKVSSPSCDSQGLHAEEAPSSEPQSPVAQTSGWPACSTPLPLVSRVKTEQQESDSVQCMPVAKRLWDSGQKEAGGGGNGSRKMAKFSTPDLAANRPHQPPPPQQAPVVAAAQPAVAAGAGQPAGGVAAAGGVVSGPSTSERTSPGTSSAYTSDSPGSYHNEEDEEEDGGEEGMDEQYRQICNMYTMYSMMNVGQTAEKVEALPEQVAPESRNRIRVRQDLASLPAELINQIGNRCHPKLYDEGDPSEKLELVTGTNVYITRAQLMNCHVSAGTRHKVLLRRLLASFFDRNTLANSCGTGIRSSTNDPRRKPLDSRVLHAVKYYCQNFAPNFKESEMNAIAADMCTNARRVVRKSWMPKVKVLKAEDDAYTTFISETGKIEPDMMGVEHGFETASHEGEAGPSAEALQ
Take B7: the binding result was “binds”.

B8: FKBP4 (protein, UniProt Q02790 1-459)
chain: MTAEEMKATESGAQSAPLPMEGVDISPKQDEGVLKVIKREGTGTEMPMIGDRVFVHYTGWLLDGTKFDSSLDRKDKFSFDLGKGEVIKAWDIAIATMKVGEVCHITCKPEYAYGSAGSPPKIPPNATLVFEVELFEFKGEDLTEEEDGGIIRRIQTRGEGYAKPNEGAIVEVALEGYYKDKLFDQRELRFEIGEGENLDLPYGLERAIQRMEKGEHSIVYLKPSYAFGSVGKEKFQIPPNAELKYELHLKSFEKAKESWEMNSEEKLEQSTIVKERGTVYFKEGKYKQALLQYKKIVSWLEYESSFSNEEAQKAQALRLASHLNLAMCHLKLQAFSAAIESCNKALELDSNNEKGLFRRGEAHLAVNDFELARADFQKVLQLYPNNKAAKTQLAVCQQRIRRQLAREKKLYANMFERLAEEENKAKAEASSGDHPTDTEMKEEQKSNTAGSQSQVETEA
B8: the binding result is on record as “binds”.

B9: DARS (protein, UniProt P14868 1-501)
chain: MPSASASRKSQEKPREIMDAAEDYAKERYGISSMIQSQEKPDRVLVRVRDLTIQKADEVVWVRARVHTSRAKGKQCFLVLRQQQFNVQALVAVGDHASKQMVKFAANINKESIVDVEGVVRKVNQKIGSCTQQDVELHVQKIYVISLAEPRLPLQLDDAVRPEAEGEEEGRATVNQDTRLDNRVIDLRTSTSQAVFRLQSGICHLFRETLINKGFVEIQTPKIISAASEGGANVFTVSYFKNNAYLAQSPQLYKQMCICADFEKVFSIGPVFRAEDSNTHRHLTEFVGLDIEMAFNYHYHEVMEEIADTMVQIFKGLQERFQTEIQTVNKQFPCEPFKFLEPTLRLEYCEALAMLREAGVEMGDEDDLSTPNEKLLGHLVKEKYDTDFYILDKYPLAVRPFYTMPDPRNPKQSNSYDMFMRGEEILSGAQRIHDPQLLTERALHHGIDLEKIKAYIDSFRFGAPPHAGGGIGLERVTMLFLGLHNVRQTSMFPRDPKRLTP
For the molecule B9, the binding entry is “binds”.

B10: HSD17B4 (protein, UniProt P51659 1-736)
chain: MGSPLRFDGRVVLVTGAGAGLGRAYALAFAERGALVVVNDLGGDFKGVGKGSLAADKVVEEIRRRGGKAVANYDSVEEGEKVVKTALDAFGRIDVVVNNAGILRDRSFARISDEDWDIIHRVHLRGSFQVTRAAWEHMKKQKYGRIIMTSSASGIYGNFGQANYSAAKLGLLGLANSLAIEGRKSNIHCNTIAPNAGSRMTQTVMPEDLVEALKPEYVAPLVLWLCHESCEENGGLFEVGAGWIGKLRWERTLGAIVRQKNHPMTPEAVKANWKKICDFENASKPQSIQESTGSIIEVLSKIDSEGGVSANHTSRATSTATSGFAGAIGQKLPPFSYAYTELEAIMYALGVGASIKDPKDLKFIYEGSSDFSCLPTFGVIIGQKSMMGGGLAEIPGLSINFAKVLHGEQYLELYKPLPRAGKLKCEAVVADVLDKGSGVVIIMDVYSYSEKELICHNQFSLFLVGSGGFGGKRTSDKVKVAVAIPNRPPDAVLTDTTSLNQAALYRLSGDWNPLHIDPNFASLAGFDKPILHGLCTFGFSARRVLQQFADNDVSRFKAIKARFAKPVYPGQTLQTEMWKEGNRIHFQTKVQETGDIVISNAYVDLAPTSGTSAKTPSEGGKLQSTFVFEEIGRRLKDIGPEVVKKVNAVFEWHITKGGNIGAKWTIDLKSGSGKVYQGPAKGAADTTIILSDEDFMEVVLGKLDPQKAFFSGRLKARGNIMLSQKLQMILKDYAKL
As to B10, the binding entry is recorded as “binds”.

B11: TMED9 (protein, UniProt Q9BVK6 38-235)
chain: LYFHIGETEKKCFIEEIPDETMVIGNYRTQLYDKQREEYQPATPGLGMFVEVKDPEDKVILARQYGSEGRFTFTSHTPGEHQICLHSNSTKFSLFAGGMLRVHLDIQVGEHANDYAEIAAKDKLSELQLRVRQLVEQVEQIQKEQNYQRWREERFRQTSESTNQRVLWWSILQTLILVAIGVWQMRHLKSFFEAKKLV
Take B11: the binding entry is reported as “binds”.

B12: RDH11 (protein, UniProt Q8TC12 1-318)
chain: MVELMFPLLLLLLPFLLYMAAPQIRKMLSSGVCTSTVQLPGKVVVVTGANTGIGKETAKELAQRGARVYLACRDVEKGELVAKEIQTTTGNQQVLVRKLDLSDTKSIRAFAKGFLAEEKHLHVLINNAGVMMCPYSKTADGFEMHIGVNHLGHFLLTHLLLEKLKESAPSRIVNVSSLAHHLGRIHFHNLQGEKFYNAGLAYCHSKLANILFTQELARRLKGSGVTTYSVHPGTVQSELVRHSSFMRWMWWLFSFFIKTPQQGAQTSLHCALTEGLEILSGNHFSDCHVAWVSAQARNETIARRLWDVSCDLLGLPID
Turning to B12, the binding entry is “binds”.
